Reference: the supplement of paper PMC8728848
The other results are listed elsewhere or left out.

Assays:
Assay in all cases: glycan array binding signal (z-score within array); higher = stronger binding
Conditions in all cases: glycan notation: IUPAC condensed, linker removed
[1] = molecular target: Gal(b1-4)GlcNAc(b1-3)Gal(b1-4)GlcNAc(b1-2)Man(a1-3)[Gal(b1-4)GlcNAc(b1-3)Gal(b1-4)GlcNAc(b1-2)Man(a1-6)]Man(b1-4)GlcNAc(b1-4)[Fuc(a1-6)]GlcNAc
Procedure, shortened: (§1)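 Glycan array data came from 3228 arrays in the Consortium for Functional Glycomics database, and only arrays with an available protein sequence were kept. Glycan names were put into IUPAC-condensed notation, and columns mapping to the same glycan were averaged. The binding signal is a within-array Z-score, averaged across arrays of one protein sequence run at different concentrations or buffers and across linkers. A negative Z-score can be read as non-binding.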

[2] = molecular target: Gal(b1-4)GlcNAc(b1-3)Gal(b1-4)GlcNAc(b1-2)[Gal(b1-4)GlcNAc(b1-3)Gal(b1-4)GlcNAc(b1-6)]Man(a1-6)[Gal(b1-4)GlcNAc(b1-3)Gal(b1-4)GlcNAc(b1-2)Man(a1-3)]Man(b1-4)GlcNAc(b1-4)GlcNAc
Procedure, shortened: as §1

[3] = molecular target: Gal(b1-4)GlcNAc(b1-3)Gal(b1-4)GlcNAc(b1-2)[Gal(b1-4)GlcNAc(b1-3)Gal(b1-4)GlcNAc(b1-6)]Man(a1-6)[Gal(b1-4)GlcNAc(b1-3)Gal(b1-4)GlcNAc(b1-2)Man(a1-3)]Man(b1-4)GlcNAc(b1-4)[Fuc(a1-6)]GlcNAc
Procedure, shortened: as §1

[4] = molecular target: Gal(b1-4)GlcNAc(b1-3)Gal(b1-4)GlcNAc(b1-3)Gal(b1-4)GlcNAc
Procedure, shortened: as §1

[5] = molecular target: Gal(b1-4)GlcNAc(b1-3)Gal(b1-4)GlcNAc(b1-3)Gal(b1-4)GlcNAc(b1-2)Man(a1-3)[Gal(b1-4)GlcNAc(b1-3)Gal(b1-4)GlcNAc(b1-3)Gal(b1-4)GlcNAc(b1-2)Man(a1-6)]Man(b1-4)GlcNAc(b1-4)GlcNAc
Procedure, shortened: as §1

[6] = molecular target: Gal(b1-4)GlcNAc(b1-3)Gal(b1-4)GlcNAc(b1-3)Gal(b1-4)GlcNAc(b1-2)Man(a1-3)[Gal(b1-4)GlcNAc(b1-3)Gal(b1-4)GlcNAc(b1-3)Gal(b1-4)GlcNAc(b1-2)Man(a1-6)]Man(b1-4)GlcNAc(b1-4)[Fuc(a1-6)]GlcNAc
Procedure, shortened: as §1

[7] = molecular target: Gal(b1-4)GlcNAc(b1-3)Gal(b1-4)GlcNAc(b1-3)Gal(b1-4)GlcNAc(b1-2)[Gal(b1-4)GlcNAc(b1-3)Gal(b1-4)GlcNAc(b1-3)Gal(b1-4)GlcNAc(b1-6)]Man(a1-6)[Gal(b1-4)GlcNAc(b1-3)Gal(b1-4)GlcNAc(b1-3)Gal(b1-4)GlcNAc(b1-2)Man(a1-3)]Man(b1-4)GlcNAc(b1-4)[Fuc(a1-6)]GlcNAc
Procedure, shortened: as §1

[8] = molecular target: Gal(b1-4)GlcNAc(b1-3)Gal(b1-4)GlcNAc(b1-3)Gal(b1-4)GlcNAc(b1-3)Gal(b1-4)GlcNAc(b1-2)Man(a1-3)[Gal(b1-4)GlcNAc(b1-3)Gal(b1-4)GlcNAc(b1-3)Gal(b1-4)GlcNAc(b1-3)Gal(b1-4)GlcNAc(b1-2)Man(a1-6)]Man(b1-4)GlcNAc(b1-4)GlcNAc
Procedure, shortened: as §1

[9] = molecular target: Gal(b1-4)GlcNAc(b1-3)Gal(b1-4)GlcNAc(b1-3)Gal(b1-4)GlcNAc(b1-3)Gal(b1-4)GlcNAc(b1-2)Man(a1-3)[Gal(b1-4)GlcNAc(b1-3)Gal(b1-4)GlcNAc(b1-3)Gal(b1-4)GlcNAc(b1-3)Gal(b1-4)GlcNAc(b1-2)Man(a1-6)]Man(b1-4)GlcNAc(b1-4)[Fuc(a1-6)]GlcNAc
Procedure, shortened: as §1

[10] = molecular target: Gal(b1-4)GlcNAc(b1-3)Gal(b1-4)GlcNAc(b1-3)Gal(b1-4)GlcNAc(b1-3)Gal(b1-4)GlcNAc(b1-2)[Gal(b1-4)GlcNAc(b1-3)Gal(b1-4)GlcNAc(b1-3)Gal(b1-4)GlcNAc(b1-3)Gal(b1-4)GlcNAc(b1-6)]Man(a1-6)[Gal(b1-4)GlcNAc(b1-3)Gal(b1-4)GlcNAc(b1-3)Gal(b1-4)GlcNAc(b1-3)Gal(b1-4)GlcNAc(b1-2)Man(a1-3)]Man(b1-4)GlcNAc(b1-4)[Fuc(a1-6)]GlcNAc
Procedure, shortened: as §1

[11] = molecular target: Gal(b1-4)GlcNAc(b1-3)Gal(b1-4)GlcNAc(b1-3)Gal(b1-4)GlcNAc(b1-3)Gal(b1-4)GlcNAc(b1-3)Gal(b1-4)GlcNAc(b1-2)Man(a1-3)[Gal(b1-4)GlcNAc(b1-3)Gal(b1-4)GlcNAc(b1-3)Gal(b1-4)GlcNAc(b1-3)Gal(b1-4)GlcNAc(b1-3)Gal(b1-4)GlcNAc(b1-2)Man(a1-6)]Man(b1-4)GlcNAc(b1-4)GlcNAc
Procedure, shortened: as §1

[12] = molecular target: Gal(b1-4)GlcNAc(b1-3)Gal(b1-4)GlcNAc(b1-3)Gal(b1-4)GlcNAc(b1-3)Gal(b1-4)GlcNAc(b1-3)Gal(b1-4)GlcNAc(b1-2)Man(a1-3)[Gal(b1-4)GlcNAc(b1-3)Gal(b1-4)GlcNAc(b1-3)Gal(b1-4)GlcNAc(b1-3)Gal(b1-4)GlcNAc(b1-3)Gal(b1-4)GlcNAc(b1-2)Man(a1-6)]Man(b1-4)GlcNAc(b1-4)[Fuc(a1-6)]GlcNAc
Procedure, shortened: as §1

[13] = molecular target: Gal(b1-4)GlcNAc(b1-3)Gal(b1-4)GlcNAc(b1-3)Gal(b1-4)GlcNAc(b1-3)Gal(b1-4)GlcNAc(b1-3)Gal(b1-4)GlcNAc(b1-2)[Gal(b1-4)GlcNAc(b1-3)Gal(b1-4)GlcNAc(b1-3)Gal(b1-4)GlcNAc(b1-3)Gal(b1-4)GlcNAc(b1-3)Gal(b1-4)GlcNAc(b1-6)]Man(a1-6)[Gal(b1-4)GlcNAc(b1-3)Gal(b1-4)GlcNAc(b1-3)Gal(b1-4)GlcNAc(b1-3)Gal(b1-4)GlcNAc(b1-3)Gal(b1-4)GlcNAc(b1-2)Man(a1-3)]Man(b1-4)GlcNAc(b1-4)[Fuc(a1-6)]GlcNAc
Procedure, shortened: as §1

[14] = molecular target: Gal(b1-4)GlcNAc(b1-3)Gal(b1-4)GlcNAc(b1-3)Gal(b1-4)GlcNAc(b1-3)Gal(b1-4)GlcNAc(b1-3)Gal(b1-4)GlcNAc(b1-3)Gal(b1-4)GlcNAc(b1-2)Man(a1-3)[Gal(b1-4)GlcNAc(b1-3)Gal(b1-4)GlcNAc(b1-3)Gal(b1-4)GlcNAc(b1-3)Gal(b1-4)GlcNAc(b1-3)Gal(b1-4)GlcNAc(b1-3)Gal(b1-4)GlcNAc(b1-2)Man(a1-6)]Man(b1-4)GlcNAc(b1-4)GlcNAc
Procedure, shortened: as §1

[15] = molecular target: Gal(b1-4)GlcNAc(b1-3)Gal(b1-4)GlcNAc(b1-3)GalNAc
Procedure, shortened: as §1

[16] = molecular target: Gal(b1-4)GlcNAc(b1-3)Gal(b1-4)GlcNAc(b1-3)[Gal(b1-4)GlcNAc(b1-3)Gal(b1-4)GlcNAc(b1-6)]GalNAc
Procedure, shortened: as §1

[17] = molecular target: Gal(b1-4)GlcNAc(b1-3)Gal(b1-4)GlcNAc(b1-6)[Gal(b1-3)]GalNAc
Procedure, shortened: as §1

[18] = molecular target: Gal(b1-4)GlcNAc(b1-3)Gal(b1-4)[Fuc(a1-3)]GlcNAc(b1-3)Gal(b1-4)[Fuc(a1-3)]GlcNAc
Procedure, shortened: as §1

[19] = molecular target: Gal(b1-4)GlcNAc(b1-3)GalNAc
Procedure, shortened: as §1

[20] = molecular target: Gal(b1-4)GlcNAc(b1-3)[Fuc(a1-3)GlcNAc(b1-6)]Gal(b1-4)Glc
Procedure, shortened: as §1

[21] = molecular target: Gal(b1-4)GlcNAc(b1-3)[Gal(b1-4)GlcNAc(b1-6)]Gal(b1-4)GlcNAc
Procedure, shortened: as §1

[22] = molecular target: Gal(b1-4)GlcNAc(b1-3)[GlcNAc(b1-6)]Gal(b1-4)GlcNAc
Procedure, shortened: as §1

B1: cFel (Cyprinus carpio), P68512 (protein)
chain: LDCTVIDGNLKQIDAGSGSVVGVNNLNETFVLIDNVFTKISGSLKHFSVGPAGQLGVNTANNIFKYQSGGFVQLAGLLKQVDAGGDQIIAGVNMYDDIYCLNMDANNKWPSSNTPWVQINGKLKYYSCGPYSCWGVNSNDQIFIMKDVSSNVCSGSGSFINIPGLLSMIEVATDGSVFGVNSQGNLYQRTGVTRSKPDGTDWISMVACPNGHKHVSFDLGVLWLVCVDGSIRKCILTD
B1 was tested, and the “glycan array binding signal (z-score)” value [1] was -0.29, the “glycan array binding signal (z-score)” value [2] was 1.5 and the “glycan array binding signal (z-score)” value [3] was -0.622. The “glycan array binding signal (z-score)” value [4] was -0.529, the “glycan array binding signal (z-score)” value [5] was 0.409 and the “glycan array binding signal (z-score)” value [6] was -0.8. For the same binder, the “glycan array binding signal (z-score)” value [7] was 0.105, the “glycan array binding signal (z-score)” value [8] was 1.01 and the “glycan array binding signal (z-score)” value [9] was -0.084. For the same binder, the “glycan array binding signal (z-score)” value [10] was 1.24, the “glycan array binding signal (z-score)” value [11] was -0.612 and the “glycan array binding signal (z-score)” value [12] was 1.98. The “glycan array binding signal (z-score)” value [13] was 0.142, the “glycan array binding signal (z-score)” value [14] was -0.504 and the “glycan array binding signal (z-score)” value [15] was -0.089. The “glycan array binding signal (z-score)” value [16] was 0.667, the “glycan array binding signal (z-score)” value [17] was 0.769 and the “glycan array binding signal (z-score)” value [18] was -0.821. The “glycan array binding signal (z-score)” value [19] was -0.436, the “glycan array binding signal (z-score)” value [20] was 1.14 and the “glycan array binding signal (z-score)” value [21] was -0.87. The “glycan array binding signal (z-score)” value [22] was -0.765.
